Data as given in PubChem BioAssay AID493014 (National Center for Advancing Translational Sciences (NCATS), 2011).
Some of the results follow. These are further read-outs of the screen, such as a control signal, another cell line or another target. No call is given for them. Compounds called inactive in the main read-out are mostly missing here. Potencies come from curve fits of mixed quality, noted in brackets.

Assay: qHTS Assay to Find Inhibitors of Chronic Active B-Cell Receptor Signaling
Details: ABC-DLBCL IkBa-CBG/CBR reporter, luminescence ratio (green luciferase fused to IkBa over red control in TMD8 lymphoma cells), 4 h
How it was run: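 Compounds up to 46 uM were incubated four hours with TMD8 cells whose green CBG68 luciferase is fused to IkappaBalpha; red CBR luminescence normalised the signal, and concentration-effect curves were fitted to fusion, red and ratio data.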

[1] = measured here: CBR red luminescence, cell number
[2] = measured here: IkBa-CBG green luminescence

With `C=CCSc1nc2sc(C)c(C)c2c(=O)n1CC=C` as the molecule, how does the AC50 [1] read?
Its AC50 is 7.31 µM [rising, partial curve].

For `COc1cccc(C(=O)Nc2ccc3c(C)cc(=O)oc3c2)c1`, which AC50 [1] is on record?
Its AC50 is 2.51 µM [falling, full curve].

With `COc1cccc(NC(=O)Nc2ccc3nc(C)c(C)nc3c2)c1` as the molecule, how does the AC50 [1] read?
The AC50 was 1.12 µM [falling, full curve, poor fit].

For `CCOC(=O)c1cc(-c2ccccc2)n(CCCC(=O)Nc2cccc(C)c2C)c1C`, which AC50 [1] is on record?
The AC50 was 10 µM [rising, partial curve, poor fit].

For `O=C(CN1CCN(C(=O)c2ccco2)CC1)Nc1ccc(F)cc1F`, which AC50 [1] is on record?
The AC50 was 4.47 µM [falling, partial curve].

With `COc1ccc(C2=NN(c3ccccc3)C(c3cccs3)C2)cc1` (stereo unspecified) as the molecule, how does the AC50 [1] read?
The AC50 was 20 µM [rising, partial curve, poor fit].

For `O=C(CCN1C(=O)c2ccccc2S1(=O)=O)N1CCN(c2ccccc2)CC1`, which AC50 [1] is on record?
Its AC50 is 35.5 µM [rising, single point].

Which AC50 [1] does the source give for `CCN(CC(=O)Nc1c(F)cccc1F)C(=O)/C=C/c1ccc(C)o1` here?
Its AC50 is 18.4 µM [falling, partial curve, poor fit].

For `Cc1cc(C)cc(NC(=S)NN)c1`, which AC50 [1] is on record?
Its AC50 is 1.12 µM [rising, partial curve].

With `COc1ccc(CCNC(=O)c2n[nH]c3ccccc23)cc1` as the molecule, how does the AC50 [1] read?
Its AC50 is 20 µM [falling, partial curve, poor fit].

Which AC50 [1] does the source give for `Cc1ccc(NC(=O)c2c(C)noc2C)cc1S(=O)(=O)N1CCOCC1` here?
The AC50 was 11.6 µM [rising, partial curve, poor fit].

Which AC50 [1] does the source give for `Cc1cccc(Nc2nnc(SCC3CCCCO3)s2)c1` (stereo unspecified) here?
Its AC50 is 29.1 µM [falling, single point].

Which AC50 [1] does the source give for `COc1cccc(-c2ccc(NC(=O)C3CCCN(Cc4cnc(C)s4)C3)cc2)c1` (stereo unspecified) here?
Its AC50 is 7.08 µM [falling, partial curve, poor fit].

For `COc1cc(-c2nnc3sc(Cc4ccccc4)nn23)cc(OC)c1OC`, which AC50 [1] is on record?
The AC50 was 12.6 µM [falling, partial curve, poor fit].

For `O=C(Nc1cc(C(F)(F)F)ccc1N1CCOCC1)c1n[nH]c(=O)c2ccccc12`, which AC50 [1] is on record?
Its AC50 is 2.51 µM [rising, partial curve, poor fit].

With `CCn1c(SCC(=O)C(C)(C)C)nnc1-c1cccnc1` as the molecule, how does the AC50 [1] read?
Its AC50 is 32.6 µM [falling, single point].

Which AC50 [1] does the source give for `O=C(CN1CCCCCC1)Nc1ccc(Cl)cc1F` here?
Its AC50 is 6.31 µM [falling, partial curve].

Which AC50 [1] does the source give for `Cc1csc(CNc2ncnc3ccc(-c4ccccc4Cl)cc23)c1` here?
The AC50 was 18.4 µM [falling, single point].

With `Cc1cccc(-n2ncc3c(=O)[nH]c(SCC(=O)Nc4cc(C)on4)nc32)c1` as the molecule, how does the AC50 [1] read?
Its AC50 is 25.9 µM [rising, single point].

Which AC50 [1] does the source give for `COc1ccc(OCCC(=O)OCC(=O)NC2CCCCC2)cc1` here?
Its AC50 is 5.8 µM [rising, single point].

For `O=C(NCCCO)c1ccc2nc(-c3ccco3)c(-c3ccco3)nc2c1`, which AC50 [1] is on record?
The AC50 was 35.5 µM [falling, single point].

Which AC50 [1] does the source give for `Cc1ccccc1/C(N)=N/OC(=O)c1cccs1` here?
The AC50 was 29.1 µM [falling, single point].

For `C/C=C/C=C\C(=O)Nc1cccc(C2=NOC3(C2)C[C@@H](C(N)=O)N(C(=O)c2cc([N+](=O)[O-])cc([N+](=O)[O-])c2C)C3)c1` (stereo partly specified), which AC50 [1] is on record?
The AC50 was 1.58 µM [falling, full curve].

Which AC50 [1] does the source give for `O=C(N/N=C/c1c(O)n(-c2ccccc2Cl)c(=O)c2ccccc12)C1COc2ccccc2O1` (stereo unspecified) here?
Its AC50 is 14.6 µM [falling, partial curve, poor fit].

With `Cc1cccc2sc(N(Cc3cccnc3)C(=O)c3cccs3)nc12` as the molecule, how does the AC50 [2] read?
The AC50 was 5.62 µM [rising, full curve, poor fit].

For `CCn1c(SCC(=O)N/N=C/C=C/c2ccco2)nc2ccccc21`, which AC50 [2] is on record?
Its AC50 is 18.4 µM [falling, single point].

With `COc1cc(-c2nc(-c3ccccc3)c(-c3cccs3)[nH]2)cc(OC)c1OC` as the molecule, how does the AC50 [1] read?
Its AC50 is 16.4 µM [falling, single point].

For `COC(=O)C1=C(C)N(c2cccc3ccccc23)C(=O)C1`, which AC50 [1] is on record?
The AC50 was 0.461 µM [falling, full curve, poor fit].

Which AC50 [1] does the source give for `Cc1ccc(CNC(=O)COC(=O)C2CCC2)cc1` here?
Its AC50 is 0.731 µM [rising, partial curve, poor fit].

Which AC50 [1] does the source give for `COc1ccc(NC(=O)CCC2CCCC2)cc1OC` here?
Its AC50 is 5.8 µM [rising, full curve, poor fit].

With `COc1cc(/C=N/NC(=S)Nc2cccc(S(=O)(=O)N(C)C)c2)cc(OC)c1O` as the molecule, how does the AC50 [1] read?
Its AC50 is 18.4 µM [falling, single point].

Which AC50 [1] does the source give for `c1ccc(-c2oc3ncnc(NCCCN4CCOCC4)c3c2-c2ccccc2)cc1` here?
Its AC50 is 17.8 µM [falling, single point].

Which AC50 [1] does the source give for `COc1ccc(C(=O)Oc2cccc(Nc3ncnc4ccccc34)c2)cc1OC` here?
The AC50 was 20.6 µM [falling, partial curve, poor fit].

Which AC50 [1] does the source give for `Cc1sc(NC(=O)C2C3CCC(O3)C2C(=O)O)nc1-c1ccc(CC(C)C)cc1` (stereo unspecified) here?
Its AC50 is 2.59 µM [rising, full curve].

Which AC50 [1] does the source give for `C=CCSc1nnc(NC(=O)Cc2ccc(OC)c(OC)c2)s1` here?
The AC50 was 15.8 µM [rising, partial curve, poor fit].

For `CCn1cc(/C=N/NS(=O)(=O)c2ccc(OC)cc2)c(C)n1`, which AC50 [1] is on record?
Its AC50 is 14.6 µM [rising, single point].

For `COC(=O)c1ccc(/C=C2\SC(=S)N(CCCC(=O)NCCCN3CCOCC3)C2=O)cc1`, which AC50 [1] is on record?
The AC50 was 35.5 µM [falling, partial curve, poor fit].

Which AC50 [1] does the source give for `COCCCNC(=O)c1c(N)n(/N=C/c2cccs2)c2nc3ccccc3nc12` here?
The AC50 was 11.2 µM [falling, partial curve, poor fit].

For `COc1ccc(OCc2nnc(SCC(=O)N3CCCc4ccccc43)n2-c2ccc(C)cc2)cc1`, which AC50 [1] is on record?
The AC50 was 25.9 µM [falling, single point].

For `COc1ccc(/C=C2/C(=O)N=C(N)N2C)cc1OC`, which AC50 [1] is on record?
The AC50 was 20.6 µM [rising, partial curve, poor fit].

Which AC50 [1] does the source give for `Cc1ccc(-c2nc(C=Nc3ccc(O)cc3)c(O)o2)cc1` here?
Its AC50 is 35.5 µM [falling, single point].
